Experimental data taken from patent US20260265386A1 (Chugai, published 2026).
These are yes or no findings as the source states them, for the method shown. Some entries that bind do so weakly or less than the wild type.

The chains behind the UniProt entries cited, without tags or fusion partners. Residues count along the entry.
UniProt Q15116, residues 25-288: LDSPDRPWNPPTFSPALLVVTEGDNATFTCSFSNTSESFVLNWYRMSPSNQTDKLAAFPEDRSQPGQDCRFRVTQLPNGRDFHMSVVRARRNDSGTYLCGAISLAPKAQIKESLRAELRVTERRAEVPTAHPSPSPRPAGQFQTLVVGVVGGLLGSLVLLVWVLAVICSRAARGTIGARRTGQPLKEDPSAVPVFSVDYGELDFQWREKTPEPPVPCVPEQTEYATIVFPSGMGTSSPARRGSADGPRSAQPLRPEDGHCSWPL

B1: PDA0041 (antibody, human IgG1, kappa, V domains shown)
VH: QEQLEESGGDLVKPGASLTLTCTASGFSFNSYWMSWVRQAPGKGLEWIADIGAGGSGSTFYASWAKGRFTISKTSSTTVTLQMTSLTAADTATYFCARYVDGGHSDLWGPGTLVTVSS
VL: AFELTQTPSSVEAAVGGTVSINCQASEDIERYLAWYQQRPGQPPKLLIYTASSLPSGVPSRFKGSGSGTQFTLTISDLEAADAATYYCQQGWSDANVDNTFGGGTEVVVKR
B2: PDA0070 (antibody, human IgG1, kappa, V domains shown)
VH: QEQLEESGGDLVKPGASLTLTCTASGFSFNSYWMSWVRQAPGKGLEWIADIGAGGSGSTFYASWAKGRFTISKTSSTTVTLQMTSLTAADTATYFCARYVDGGHSDLWGPGTLVTVSS
VL: AFELTQTPSSVEAAVGGTVSINCQASEDIERYLAWYQQRPGQPPKLLIYTASSLPSGVPSRFKGSGSGTQFTLTISDLEAADAATYYCQQGWSDANVDNTFGGGTEVVVKR

Experiments:
[1] = biological target: human PD1 on NFAT-luc2/PD1 Jurkat Cell line (Promega, #CS187102) (human) (UniProt Q15116); assay: flow cytometry on NFAT-luc2/PD1 Jurkat cells, Ab 10 micro g/mL, detected with Goat F(ab')2 anti-Human IgG-PE
[2] = biological target: human PD1 on NFAT-luc2/PD1 Jurkat Cell line (Promega, #CS187102) (human) (UniProt Q15116); assay: flow cytometry, antibody 10 micro g/mL on NFAT-luc2/PD1 Jurkat cells, anti-human IgG-PE detection

Binder	binding [1]	binding [2]
B1	binds	binds
B2	binds	binds
